tested on: MCF-7 cells; assay: MTT cytotoxicity assay, MCF-7; conditions: among MCF-7, HCT116 and HepG2 cell lines

Row | Compound | Selectivity
1 | CC(=O)O[C@H]1C(=O)[C@@]2(C)[C@H]([C@H](OC(=O)c3ccccc3)[C@]3(O)C[C@H](OC(=O)[C@H](O)[C@@H](NC(=O)c4ccccc4)c4ccccc4)C(C)=C1C3(C)C)[C@]1(OC(C)=O)CO[C@@H]1C[C@@H]2O [Taxol, reference compound] | Nonselective
2 | C=CCNc1nnc(-c2cc(-c3nnc(NCC=C)s3)cc(-c3nnc(NCC=C)s3)c2)s1 [Compound 27, 5,5′,5″-(benzene-1,3,5-triyl)tris(N-allyl-1,3,4-thiadiazol-2-amine)] | MCF-7 Selective
3 | S=c1[nH]nc(-c2cc(-c3n[nH]c(=S)n3C3CCCCC3)cc(-c3n[nH]c(=S)n3C3CCCCC3)c2)n1C1CCCCC1 [Compound 20, 3,3′,3″-(benzene-1,3,5-triyl)tris(4-cyclohexyl-1H-1,2,4-triazole-5(4H)-thione)] | HepG2 Selective
4 | c1ccc(Nc2nnc(-c3cc(-c4nnc(Nc5ccccc5)s4)cc(-c4nnc(Nc5ccccc5)s4)c3)s2)cc1 [Compound 28, 5,5′,5″-(benzene-1,3,5-triyl)tris(N-phenyl-1,3,4-thiadiazol-2-amine)] | MCF-7 Selective
5 | CCNc1nnc(-c2cc(-c3nnc(NCC)s3)cc(-c3nnc(NCC)s3)c2)s1 [Compound 25, 5,5′,5″-(benzene-1,3,5-triyl)tris(N-ethyl-1,3,4-thiadiazol-2-amine)] | HepG2 Selective
6 | S=c1[nH]nc(-c2cc(-c3n[nH]c(=S)n3-c3ccccc3)cc(-c3n[nH]c(=S)n3-c3ccccc3)c2)n1-c1ccccc1 [Compound 23, 3,3′,3″-(benzene-1,3,5-triyl)tris(4-phenyl-1H-1,2,4-triazole-5(4H)-thione)] | HCT116/HepG2 Selective
7 | S=c1[nH]nc(-c2cc(-c3n[nH]c(=S)n3Cc3ccccc3)cc(-c3n[nH]c(=S)n3Cc3ccccc3)c2)n1Cc1ccccc1 [Compound 22, 3,3′,3″-(benzene-1,3,5-triyl)tris(4-benzyl-1H-1,2,4-triazole-5(4H)-thione)] | Nonselective
8 | C=CCn1c(-c2cc(-c3n[nH]c(=S)n3CC=C)cc(-c3n[nH]c(=S)n3CC=C)c2)n[nH]c1=S [Compound 21, 3,3′,3″-(benzene-1,3,5-triyl)tris(4-allyl-1H-1,2,4-triazole-5(4H)-thione)] | Nonselective
9 | CCn1c(-c2cc(-c3n[nH]c(=S)n3CC)cc(-c3n[nH]c(=S)n3CC)c2)n[nH]c1=S [Compound 19, 3,3′,3″-(benzene-1,3,5-triyl)tris(4-ethyl-1H-1,2,4-triazole-5(4H)-thione)] | MCF-7 Selective

Reference: article PMC9369007 (International Journal of Molecular Sciences, 2022)
